Source: US11548942B2, “Methods of treating a wasting syndrome, increasing growth hormone levels, and increasing GHSR activity with a LEAP2 antibody” (NGM Biopharmaceuticals, Inc., priority 2017, dated 2023)
Not every detail of the peptide structures is certain; ends, links or a residue may be inferred. Bridge positions count the residues as written; N and C are the ends. Peptide text beside a SMILES is read from it.

Chains of the proteins cited; added tags and fusions are not shown.
UniProt Q92847, whole entry: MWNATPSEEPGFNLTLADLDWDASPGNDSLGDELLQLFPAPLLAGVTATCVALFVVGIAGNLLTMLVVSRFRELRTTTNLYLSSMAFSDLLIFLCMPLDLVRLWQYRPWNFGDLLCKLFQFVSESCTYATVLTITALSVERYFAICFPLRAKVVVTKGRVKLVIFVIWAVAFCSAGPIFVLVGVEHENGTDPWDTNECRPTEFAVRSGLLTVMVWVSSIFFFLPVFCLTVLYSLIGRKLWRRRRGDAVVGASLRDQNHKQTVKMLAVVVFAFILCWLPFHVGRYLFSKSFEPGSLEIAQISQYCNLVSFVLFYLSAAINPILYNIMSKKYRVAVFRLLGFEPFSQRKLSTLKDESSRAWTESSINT

Key:
GHSR [1] = molecular target: T1, GHSR (Homo sapiens, UniProt Q92847); assay: GPCR panel screen, PathHunter β-arrestin, antagonist format; format: cell-based; details: 3 μM peptide pre-incubated 30 min, agonist at EC80
[2] = system: panel of 168 engineered stable cell lines each expressing a single GPCR; assay: GPCR panel screen, PathHunter β-arrestin, agonist format; format: cell-based; details: physiological concentrations (EC50≤100 nM), screened at 3 μM
food intake = assay: Food intake in mice; format: in vivo
Procedure: Mice were housed in individual cages and food intake was measured at 0.5, 1, and 2 hours.
Mice were subcutaneously injected with 0.15 μmol/kg or 3 μmol/kg LEAP2.

[3] = system: ghrelin-induced growth hormone release; assay: Ghrelin-induced growth hormone release in mice; format: in vivo; details: LEAP2 i.p. 10 min before ghrelin 6 nmol/kg i.v.
GHSR [4] = molecular target: T1, GHSR; assay: Binding of Alexa 647-labeled LEAP2 peptide to GHSR-transfected cells, confocal microscopy; design: expressed in transfected cells; details: Alexa 647-labeled peptide 3 μg/ml, 30 minutes, room temperature
GHSR [5] = molecular target: T1, GHSR; assay: Competition assay: ghrelin-induced GHSR activation with increasing antagonist
[6] = Chronic calorie restriction in mice with AAV-driven LEAP2 expression; format: in vivo; details: AAV-driven LEAP2-expressing mice, CR group (40% of daily food intake)
wild-type GHSR = molecular target: T2, wild-type GHSR (Homo sapiens, UniProt Q92847); assay: GHSR calcium mobilization assay (FLUO-3); format: cell-based; details: read-out: IC50 of abrogation of ghrelin-induced GHSR activity
T2 construct: expressed in transfected cells

GHSR [7] = molecular target: T1, GHSR; assay: GHSR activity assay, PathHunter U2OS GHSR β-Arrestin Cell Line; format: cell-based

CC[C@H](C)[C@@H]1NC(=O)[C@@H]2CSSC[C@@H](C(=O)N[C@@H](CO)C(=O)N[C@@H](CC(C)C)C(=O)N[C@@H](CO)C(=O)N[C@H](C(=O)N[C@@H](C)C(=O)N[C@@H](CCC(N)=O)C(=O)N[C@@H](CCC(=O)O)C(=O)O)C(C)C)NC(=O)[C@H](CCCNC(=N)N)NC(=O)[C@H](CCCNC(=N)N)NC(=O)[C@H](CCCCN)NC(=O)[C@H](CCCNC(=N)N)NC(=O)[C@H](CSSC[C@H](NC(=O)[C@H](CO)NC(=O)[C@H](C)NC(=O)CNC(=O)[C@@H](NC(=O)[C@@H]3CCCN3C(=O)[C@H](CCCNC(=N)N)NC(=O)[C@H](CC(C)C)NC(=O)[C@H](CO)NC(=O)[C@@H](NC(=O)CNC(=O)[C@H](CCCNC(=N)N)NC(=O)[C@H](Cc3c[nH]c4ccccc34)NC(=O)[C@H](Cc3ccccc3)NC(=O)[C@@H]3CCCN3C(=O)[C@@H](NC(=O)[C@@H](N)CCSC)[C@@H](C)O)C(C)C)[C@@H](C)CC)C(=O)N[C@@H](CCCNC(=N)N)C(=O)N[C@@H](CC(=O)O)C(=O)N[C@@H](CC(=O)O)C(=O)N[C@@H](CO)C(=O)N[C@@H](CCC(=O)O)C(=O)N2)NC(=O)[C@H](CC(C)C)NC(=O)[C@H](CCCNC(=N)N)NC(=O)[C@H]([C@@H](C)O)NC1=O [LEAP2 peptide, Mature peptide of human LEAP2] (H-MTPFWRGVSLRPIGASCRDDSECITRLCRKRRCSLSVAQE-OH; disulfide 17-28, 23-33 (inferred); N-terminus and C-terminus assumed)
inhibition of GHSR activity in antagonist mode (GHSR [1]): fully inhibited | receptor activation in agonist mode [2]: no receptors were found to be activated | food intake, peptide alone (food intake; LEAP2 0.15 μmol/kg s.c. alone): nor did it affect food intake when administered alone | ghrelin-induced food intake (food intake; LEAP2 0.15 μmol/kg s.c. before ghrelin 0.15 μmol/kg): no effect on ghrelin-induced food intake | increase in food intake induced by ghrelin (food intake; LEAP2 3 μmol/kg s.c. 20 minutes before ghrelin 0.15 μmol/kg s.c.): completely abolished | food intake, peptide alone (food intake; LEAP2 3 μmol/kg s.c. alone, versus vehicle): consumed significantly less food than vehicle-treated mice | dose from which peak and total (AUC) growth hormone release were significantly reduced [3]: ≥ 7.2 nmol/kg | effect on ghrelin-induced growth hormone release [3]: attenuated ghrelin-induced growth hormone release in a dose-dependent manner | co-localization with GHSR (GHSR [4]): co-localized with GHSR in GHSR-transfected cells, but not in non-transfected cells | mode of antagonism at GHSR (GHSR [5]): non-competitive antagonist | effect on maximal GHSR activation by ghrelin (GHSR [5]; increasing concentrations of antagonist): reduced the magnitude of maximal GHSR activation | blood glucose level under chronic calorie restriction [6]: below 30 mg/dL | IC50 (wild-type GHSR): 11.6 nM | effect on signaling through GHSR in the absence of ghrelin (GHSR [7]; agonist format, β-arrestin): did not affect signaling through GHSR either positively or negatively | IC50 (GHSR [7]; antagonist format, ghrelin at 13 nM (EC80), read-out: IC50 of inhibition of ghrelin-induced GHSR activation): 6.74 nM
